At least one peptide structure holds a part that was inferred or is arguable (an end, a ring closure or a residue). *1 amine or outer side, *2 acyl side, *3 side chain or, on linkers, in order; H or OH if unused. Where a SMILES comes first, the peptide text is derived from it. [ ]: non-standard residue; d: D form. The star is where a group is joined. Asp(3,3-(CH2)4) = N[C@H](C(=O)O)C1(C(=O)O)CCCC1; tBuAla = CC(C)(C)C[C@H](N)C(=O)O; Tle = CC(C)(C)[C@H](N)C(=O)O; Pyrrolidide = C1CCN(*)C1; X2 = CC(C)(C)CC(C)(C)N*; CO = O=C([*:1])[*:2]
Tested on: HSV-2
Experiment: Inhibition of Herpes Simplex Virus (HSV-2) replication in cell culture
Type: cell-based, Herpes simplex virus type 2 (strain HG-52)
Settings: BHK-21/C13 cells, HSV-2 strain HG-52, 0.02 PFU/cell, 29 h incubation, colorimetric viral titration; read-out: EC50 (concentration effecting a 50% inhibition of virus replication)

CC(C)(C)C[C@H](NC(=O)[C@@H](NC(=O)[C@H](CC(=O)N1CCCC1)NC(=O)[C@@H](NC(=O)NC(C)(C)CC(C)(C)C)C(C)(C)C)C1(C(=O)O)CCCC1)C(=O)O [Me3 CCH2 CMe2 NHC(O)-Tbg-Asp(pyrrolidino)-Asp(cyPn)-γMeLeu-OH] ({X2-CO}-[Tle]D(Pyrrolidide)[Asp(3,3-(CH2)4)][tBuAla]-OH)
EC50: 110 µM

Source: patent publication US5830864A, “Antiherpes peptide derivatives having a ureido n-terminus” (priority 1995, dated 1998)
